Some entries share one result that the patent states for a list of compounds.
Each compound was assayed on Tenebrio molitor L larvae (assay: Diet (wheat bran) assay against Tenebrio molitor L larvae: larval weight, growth, killing). Conditions: 1 mg mixed with 10 g wheat bran.
Format: in vivo
Experimental: Among the present compounds with an ACAT inhibitory activity, the phenylpyropene A, B and C (Formulas 2 to 4) were tested for weight-reducing effect in larval insects. In this test, larvae of Tenebrio molitor L. was used as an experimental insect, which was obtained from the insect research lab, KRIBB, Korea. Healthy second-instar larvae (10-12 mm) of Tenebrio molitor L was selected 24 hrs before performing this test. Each of the compounds of Formulas 2 to 4 was dissolved in 10% acetone to a final concentration of 1 mg/ml and serially diluted. 1 ml of the diluted compound solution was mixed with […] of wheat bran commonly used as a diet. The resulting mixture was put into a glass petri dish (90×20 mm), and the petri dish was placed in a desiccator for about 2 hrs under pressure to remove the organic solvent. After being weighed, 10 highly mobile larvae of T. molitor L for each test set were placed in a petri dish (87×15 mm) with a filter paper disk, together with the mixture of the present compound and wheat bran. Then, the larvae were grown in at 25±±1° C. under 40-45% relative humidity with a 16-hour light/8-hours dark cycle. After 72 hrs, larval weight and diet intake were recorded every three days. This assay was performed on three replicates, and a control group was treated with 10% acetone.

| Compound | T. molitor L insect killed in the larval and pupa stages |
| --- | --- |
| CC(=O)OCC1(C)C2C[C@H](OC(C)=O)[C@@]3(C)Oc4cc(-c5ccccc5)oc(=O)c4[C@H](O)C3[C@@]2(C)CC[C@@H]1OC(C)=O (stereo partly drawn) [phenylpyropene A] | over 50% |
| CC(=O)OC1CC[C@@]2(C)C(CC[C@@]3(C)Oc4cc(-c5ccccc5)oc(=O)c4CC23)C1(C)C (stereo partly drawn) [phenylpyropene C] | over 50% |
| pheophorbide a | over 50% |

From patent US20090182014A1, “INSECTICIDAL COMPOSITIONS COMPRISING COMPOUNDS HAVING INHIBITORY ACTIVITY VERSUS ACYL COA: CHOLESTEROL ACYLTRANSFERASE OR SALTS THEREOF AS EFFECTIVE INGREDIENTS” (priority 2003, published 2009)
